The source holds more than one record for some entries. This is not the full list of results. An entry can have further records. The values listed for one entry do not match, cause unknown; some may be repeats, others may stem from another dose, organism or construct than stated. Additions like (4×) count equal records among those shown.
Tested on: BT116 glioblastoma
Assay: Intracranial human glioblastoma model
Conditions: MP-MUS-treated group, mice #1-11; Day 307 = final day, all remaining animals sacrificed
Procedure: Postglenoid Foramen Injection. […] Some five minutes after injection and recovery from the anesthetic, the majority of the mice were walking around and were phenotypically normal within an hour. In the main study 40 SCID immuno-deficient mice were injected via the postglenoid foramen with glioblastoma in Matrigel™:tissue culture medium, 4:6, to a final cell load of 2,500,000 cells per animal; according to Iwami et al., (2012). […] A number of the SCID mice died following the glioma injections or had deficits in the first few weeks following the initial injection. After >3 months, 24 animals were asymptomatic, and 22 animals were split into two groups; MP-MUS treated and Saline treated. The remaining pair was sacrificed and their brains were fixed/waxed and archived as pre-treatment controls.
Drug Therapy and Symptom Monitoring. On day 115 mice are then given either 200 μL saline or 200 μL of 1 mg/mL MP-MUS in saline, via tail-vein injection. The same treatment was repeated on days 122 and 129.
The mice were initially placed in groups of 2×4 and 1×3 animals and were individually every 1-3 days. The mice were assessed for the onset of neurological symptoms caused by an intracranial tumor throughout the study. Symptoms in the mice that require euthanasia were sudden weight loss; >2 grams in 7 days, deficits of movement that caused the animal to be unable to drink/feed and immobility. […]

CC(C(=O)N(CCCl)CCCl)C1=CCN(C)CC1 (stereo not shown)
SAC (day of sacrifice), individual mice: Day 307 (10×) and Day 225

Source: patent US10555936B2, “Chemotherapeutic compositions and methods for treating human gliomas” (The Methodist Hospital, priority 2011, dated 2020)
